Data taken from PubChem BioAssay AID1053133, deposited by Broad Institute (2014).

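Vaccinia-infected cells with a two-color viral stage reporter; Venus fluorescence read on a plate reader; the cell line is not named here; timing not stated here.
The test concentration is not given here.
Percent change in Venus reporter signal; lower (more negative) values mean stronger inhibition of that viral stage.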

Values are in %.
The controls that fix the scale are not given here.
Common to all entries: measured here: Venus reporter, other viral stage.
This is a side read-out of the assay, for part of the compounds, not drawn at random.

{"structure": "C[C@@H]1CN([C@@H](C)CO)C(=O)Cc2cc(NS(=O)(=O)c3cccs3)ccc2O[C@H]1CN(C)Cc1ccc2c(c1)OCO2", "activity change (Venus) (%)": "-48.76"}
{"structure": "Cc1ccc(S(=O)(=O)N(C)C[C@@H]2OCCCC[C@H](C)Oc3ccc(NC(=O)NC(C)C)cc3C(=O)N([C@@H](C)CO)C[C@@H]2C)cc1", "activity change (Venus) (%)": "-34.97"}
{"structure": "C/C=C/c1ccc([C@H]2[C@@H](CO)N3CCCCN(C(=O)Nc4ccc(OC)cc4)C[C@@H]23)cc1", "activity change (Venus) (%)": "-26.84"}
{"structure": "COc1ccc(CN(C)C[C@@H]2OCCCC[C@H](C)Oc3ccc(NC(=O)Nc4ccc5c(c4)OCO5)cc3C(=O)N([C@@H](C)CO)C[C@@H]2C)cc1", "activity change (Venus) (%)": "-60.42"}
{"structure": "COc1ccc(C#Cc2ccc([C@H]3[C@H](CO)N4CCCCN(Cc5ccccc5F)C[C@@H]34)cc2)cc1", "activity change (Venus) (%)": "-51.95"}
{"structure": "C[C@@H]1CN([C@H](C)CO)C(=O)c2cc(NC(=O)Nc3ccc(F)cc3)ccc2O[C@@H](C)CCCCO[C@H]1CN(C)Cc1ccc(C(F)(F)F)cc1", "activity change (Venus) (%)": "-37.36"}
{"structure": "Cc1ccc(S(=O)(=O)N(C)C[C@H]2Oc3ccc(NC(=O)C4CCCCC4)cc3C(=O)N([C@H](C)CO)C[C@@H]2C)cc1", "activity change (Venus) (%)": "-11.46"}
{"structure": "C[C@H]1CCCCO[C@@H](CN(C)C(=O)Nc2ccc(F)cc2)[C@@H](C)CN([C@@H](C)CO)C(=O)c2cc(NC(=O)c3ccccc3)ccc2O1", "activity change (Venus) (%)": "-36.82"}
{"structure": "O=C(c1ccc(F)cc1)N1CC(=O)N2[C@H](CO)[C@@H](c3ccc(C#CC4CCCC4)cc3)[C@H]2C1", "activity change (Venus) (%)": "-46.85"}
{"structure": "CO[C@H]1CN(C)C(=O)c2cc(NC(=O)C3CCC3)ccc2OC[C@@H](C)N(CC2CCCCC2)C[C@@H]1C", "activity change (Venus) (%)": "-40.09"}
{"structure": "CO[C@@H]1CN(C)C(=O)c2cc(NC(=O)C3CCC3)ccc2OC[C@H](C)N(Cc2ccc(F)cc2)C[C@H]1C", "activity change (Venus) (%)": "-28.21"}
{"structure": "C[C@@H]1CN([C@H](C)CO)C(=O)c2cc(NC(=O)Nc3cccc4ccccc34)ccc2O[C@@H]1CN(C)CC1CCCCC1", "activity change (Venus) (%)": "-32.38"}
{"structure": "C[C@H]1CCCCO[C@H](CN(C)C(=O)C2CCCCC2)[C@@H](C)CN([C@@H](C)CO)C(=O)c2cc(NC(=O)C3CCCCC3)ccc2O1", "activity change (Venus) (%)": "-40.88"}
{"structure": "O=C(c1cccc(F)c1)N1CCCCN2[C@@H](CO)[C@@H](c3ccc(-c4ccccc4)cc3)[C@@H]2C1", "activity change (Venus) (%)": "-36.92"}
{"structure": "COc1ccc(CN(C)C[C@H]2OCCCC[C@H](C)Oc3ccc(NS(=O)(=O)c4ccc(F)cc4)cc3C(=O)N([C@H](C)CO)C[C@H]2C)cc1", "activity change (Venus) (%)": "-55.11"}
{"structure": "O=C(C[C@H]1CC[C@@H]2[C@H](COC[C@H](O)CN2Cc2cccc(-c3ccncc3)c2)O1)N1CCN(c2ccccc2)CC1", "activity change (Venus) (%)": "-20.28"}
{"structure": "C[C@@H]1CCCCO[C@H](CN(C)Cc2ccc(C(F)(F)F)cc2)[C@H](C)CN([C@@H](C)CO)C(=O)c2cc(NC(=O)c3ccccc3)ccc2O1", "activity change (Venus) (%)": "-43.35"}
{"structure": "C[C@H](CO)N1C[C@H](C)[C@H](CN(C)Cc2ccc(Oc3ccccc3)cc2)Oc2c(NC(=O)NC3CCCCC3)cccc2C1=O", "activity change (Venus) (%)": "-35.6"}
{"structure": "CC(=O)N(C)C[C@@H]1Oc2cc(C#Cc3ccc(F)cc3)ccc2S(=O)(=O)N([C@H](C)CO)C[C@@H]1C", "activity change (Venus) (%)": "-21.65"}
{"structure": "COc1ccc(CN(C)C[C@H]2OCCCC[C@H](C)Oc3ccc(NC(=O)Nc4ccc(F)cc4)cc3C(=O)N([C@@H](C)CO)C[C@@H]2C)cc1", "activity change (Venus) (%)": "-70.13"}
{"structure": "N#C[C@@H]1[C@@H](c2ccc(-c3cccc(F)c3)cc2)[C@@H](CO)N1S(=O)(=O)c1cccc(F)c1", "activity change (Venus) (%)": "-29.92"}
{"structure": "COc1ccccc1C#Cc1ccc([C@H]2[C@H](C#N)N(C(=O)C3CCCCC3)[C@H]2CO)cc1", "activity change (Venus) (%)": "-27.66"}
{"structure": "CCNC(=O)C[C@@H]1CC[C@@H]2[C@H](COC[C@@H](O)CN2C(=O)Nc2ccc(C(F)(F)F)cc2)O1", "activity change (Venus) (%)": "-54.49"}
{"structure": "CCCC#Cc1ccc2c(c1)O[C@@H](CN(C)Cc1ccc3c(c1)OCO3)[C@H](C)CN([C@H](C)CO)S2(=O)=O", "activity change (Venus) (%)": "-48.22"}
{"structure": "CCC(=O)N(C)C[C@@H]1Oc2cc(/C=C/c3ccccc3)ccc2S(=O)(=O)N([C@H](C)CO)C[C@H]1C", "activity change (Venus) (%)": "-32.8"}

For reference, 2 entries once more:

* COc1ccc(CN(C)C[C@H]2OCCCC[C@H](C)Oc3ccc(NS(=O)(=O)c4ccc(F)cc4)cc3C(=O)N([C@H](C)CO)C[C@H]2C)cc1 : activity change (Venus) -55.11%
* C/C=C/c1ccc([C@H]2[C@@H](CO)N3CCCCN(C(=O)Nc4ccc(OC)cc4)C[C@@H]23)cc1 : activity change (Venus) -26.84%